Source: patent US10450346B2, “Immunotherapy against several tumors of the blood, in particular chronic lymphoid leukemia (CLL)” (Immatics biotechnologies GmbH, priority 2014, dated 2019)

B1: zinc finger protein 107 (protein, UniProt Q9UII5 1-783, looked up)
Zinc finger protein 107: MVAKPPVMSFHFAQDLWPEQNIKDSFQKVTLRRYGKCEYENLQLRKGCKHVDECTGHKGGHNTVNQCLTATPSKIFQCNKYVKVFDKFSNSNRYKRRHTGNKHFKCKECSKSFCVLSQLTQHRRIHTRVNSYKCEECGKAFNWFSTLTKHKRIHTGEKPYKCEECGKAFNQSSQLTRHKIIHTEEKPNKCEECGKAFKQASHLTIHKIIHTGEKPYKYEECGKVFSQSSHLTTQKILHTGENLYKCKECGKAFNLFSNLTNHKRIHAGEKPYKCKECGRAFNISSNLNKQEKIHTGGKLNKCEECDKAFNRSLKLTAHKKILMEEKPYKCEECGKVFNQFSTLTRHKIIHTGEKPYKCKECGKAFNQSSNLTEHKKIHTAEKSYKCEECGKAFNQHSNLINHRKIYSGEKPYKCEECGKAFNRSSTLTRHKKIHTGEKPYKCEECDRAFSQSSNLTEHKKIHTGEKPYKCEECGKAFNRFSTLTKHKRIHTGEKPYKCEECGKAFNQSYQLTRHKIVHTKEKLNKCEEFGKAFKQSSHRTIHKIIHTGEKPYKCEEHGKVFNQSSNLTTQKIIHTGENLYKFEEHGKAFNLFSNITNHKIIYTGEKPHKCEECGKAYNRFSNLTIHKRIHTGEKPYQCAECGKAFNCSSTLNRHKIIHTGEKPYKCKECGKAFNLSSTLTAHKKIHTGEKPYKCEECGKAFNQSSNLTTHKKIHTSEKPYKCEECGKSFNQFSSLNIHKIIHTGEKPYKCGDYGRAFNLSSNLTTHKKIHTGEKPYKCEYGKT
notes: LiTAA source protein
B2: TRAF3 interacting protein 3 (protein, UniProt Q9Y228 1-551, looked up)
TRAF3-interacting …: MISPDPRPSPGLARWAESYEAKCERRQEIRESRRCRPNVTTCRQVGKTLRIQQREQLQRARLQQFFRRRNLELEEKGKAQHPQAREQGPSRRPGQVTVLKEPLSCARRISSPREQVTGTSSEVFPAQHPPPSGICRDLSDHLSSQAGGLPPQDTPIKKPPKHHRGTQTKAEGPTIKNDASQQTNYGVAVLDKEIIQLSDYLKEALQRELVLKQKMVILQDLLSTLIQASDSSWKGQLNEDKLKGKLRSLENQLYTCTQKYSPWGMKKVLLEMEDQKNSYEQKAKESLQKVLEEKMNAEQQLQSTQRSLALAEQKCEEWRSQYEALKEDWRTLGTQHRELESQLHVLQSKLQGADSRDLQMNQALRFLENEHQQLQAKIECLQGDRDLCSLDTQDLQDQLKRSEAEKLTLVTRVQQLQGLLQNQSLQLQEQEKLLTKKDQALPVWSPKSFPNEVEPEGTGKEKDWDLRDQLQKKTLQLQAKEKECRELHSELDNLSDEYLSCLRKLQHCREELNQSQQLPPRRQCGRWLPVLMVVIAAALAVFLANKDNLMI
notes: LiTAA source protein
B3: cell division cycle associated 7-like (protein, UniProt Q96GN5 1-454, looked up)
Cell division …: MELATRYQIPKEVADIFNAPSDDEEFVGFRDDVPMETLSSEESCDSFDSLESGKQQDVRFHSKYFTEELRRIFIEDTDSETEDFAGFTQSDLNGKTNPEVMVVESDLSDDGKASLVSEEEEDEEEDKATPRRSRSRRSSIGLRVAFQFPTKKLANKPDKNSSSEQLFSSARLQNEKKTILERKKDCRQVIQREDSTSESEDDSRDESQESSDALLKRTMNIKENKAMLAQLLAELNSMPDFFPVRTPTSASRKKTVRRAFSEGQITRRMNPTRSARPPEKFALENFTVSAAKFAEEFYSFRRRKTIGGKCREYRRRHRISSFRPVEDITEEDLENVAITVRDKIYDKVLGNTCHQCRQKTIDTKTVCRNQGCCGVRGQFCGPCLRNRYGEDVRSALLDPDWVCPPCRGICNCSYCRKRDGRCATGILIHLAKFYGYDNVKEYLESLQKELVEDN
notes: LiTAA source protein

system: primary CLL samples (PBMC from CLL patients), HLA class I ligands; assay: HLA class I ligandome analysis by LC-MS/MS (frequency of HLA restricted presentation); set-up: species or system human; conditions: CLL patient HLA class I ligandomes (n = 30)

Molecule	Number of positive CLLs
B1	6
B2	6
B3	11

same assay, conditions: source protein (LiTAA) representation in CLL patient HLA class I ligandomes (n = 30)

Molecule	Number of positive CLLs (frequency [%]) [%]
B1	20.0
B2	20.0
B3	36.7
